Data source: PubChem BioAssay AID602196 (INSERM, 2012)

- Screen: 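Modifiers of cisplatin sensitivity in A549 cells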
- Cells: human A549 lung cancer cells
- Reagents: siRNA pair against human genes
- Timing: 48 h transfection before cisplatin; time from cisplatin to read-out not stated
- Challenge: cisplatin at a dose killing half of control-siRNA cells; exact dose and duration not given
- Read-out: 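Shift in cisplatin death relative to control siRNA, from -50 (all cells die) to +50 (no cells die); siRNAs harmful on their own scored 0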
- Direction: two-siRNA summed score (-2 to +2): higher = both siRNAs protect from cisplatin killing; -2 means both sensitise; mean protection from cisplatin (shift in death) and protection from cisplatin (shift in death), siRNA C: higher = protection from cisplatin killing
- Active means: 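siRNAs harmful alone (LDH or WST-1) get 0; others get +1 for less and -1 for more cisplatin killing; genes are active when the two siRNAs give the same sign, summing to ±2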
- Meaning of the calls: active = both siRNAs shift cisplatin killing the same way; inactive = no consistent shift, or siRNA harmful alone
In all, the deposit lists about 23,000 reagents; this is an unselected part. Over the whole deposit, 455 (2%) were called active. 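Active includes both protection and sensitisation; some change values fall well beyond the stated -50 to +50 range.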 Further read-outs or replicates are left out here. No sequences are given here. The record does not give: the amount of reagent.

no.	target gene	two-siRNA summed score (-2 to +2)	mean protection from cisplatin (shift in death) (%)	protection from cisplatin (shift in death), siRNA C (%)	Call
1	ENTPD5	0	4	3.5	inactive
2	RREB1	0	6	1.3	inactive
3	CEMIP	0	8.6	8.7	inactive
4	ZKSCAN7	0	7.9	5.9	inactive
5	LMO1	0	-1.4	-11.1	inactive
6	PML	-1	-24.1	-24.9	inactive
7	H4C14	0	8.7	-1.8	inactive
8	PRND	0	8	20.7	inactive
9	LOC440921	0	8.2	9.9	inactive
10	LOC440723	1	6.8	11.6	inactive
11	GPC1	0	-13.6	-15.7	inactive
12	ATXN1	0	6.4	11	inactive
13	RER1	0	10.9	22.1	inactive
14	NFKBIZ	0	3.5	-13.1	inactive
15	FFAR4	0	-7.2	-5.8	inactive
16	LOC149603	0	11.6	15.2	inactive
17	SEMA6C	1	11.6	-6.1	inactive
18	JADE3	0	9.6	3.4	inactive
19	SPIN2B	0	5.3	6.3	inactive
20	LDOC1	1	24.2	23.7	inactive
21	PPP1CB	0	8.9	6.2	inactive
22	MAP1LC3B	0	3	4.4	inactive
23	LINC01949	0	19.9	28.1	inactive
24	GPR158	1	14	17.5	inactive
25	LRP2	0	9.7	12.9	inactive
26	ACADSB	0	1.5	6.3	inactive
27	CHAF1B	0	4	10.4	inactive
28	STX1B	0	11.8	12.3	inactive
29	KRT6A	1	15.9	8.2	inactive
30	MITD1	1	4.5	-6.6	inactive
31	MYO1A	0	4.5	5	inactive
32	PGAM2	0	-12.5	-28.1	inactive
33	CCK	1	2.2	-13.2	inactive
34	CDC42	1	27.5	13.4	inactive
35	HPS4	0	5.7	8.4	inactive
36	USP32	0	-9.9	6.2	inactive
37	LOC442514	1	15.7	7.3	inactive
38	LOC440147	1	11.3	5.7	inactive
39	LOC440472	0	11.5	21.4	inactive

Just “mean protection from cisplatin (shift in death) (%)”, for 2 of the entries above:
CHAF1B = 4
STX1B = 11.8
